Experimental data from the supplement of paper PMC12067093, “Discovery and optimisation of a covalent ligand for TRIM25 and its application to targeted protein ubiquitination” (Chemical Science, 2025).
The list shows a part of the results.

Protein sequences, listed by entry. Tags and fused reporters are not part of them. Lines headed by an entry give the natural chain unless they say otherwise; changes in a name come on top.
UniProt Q92620: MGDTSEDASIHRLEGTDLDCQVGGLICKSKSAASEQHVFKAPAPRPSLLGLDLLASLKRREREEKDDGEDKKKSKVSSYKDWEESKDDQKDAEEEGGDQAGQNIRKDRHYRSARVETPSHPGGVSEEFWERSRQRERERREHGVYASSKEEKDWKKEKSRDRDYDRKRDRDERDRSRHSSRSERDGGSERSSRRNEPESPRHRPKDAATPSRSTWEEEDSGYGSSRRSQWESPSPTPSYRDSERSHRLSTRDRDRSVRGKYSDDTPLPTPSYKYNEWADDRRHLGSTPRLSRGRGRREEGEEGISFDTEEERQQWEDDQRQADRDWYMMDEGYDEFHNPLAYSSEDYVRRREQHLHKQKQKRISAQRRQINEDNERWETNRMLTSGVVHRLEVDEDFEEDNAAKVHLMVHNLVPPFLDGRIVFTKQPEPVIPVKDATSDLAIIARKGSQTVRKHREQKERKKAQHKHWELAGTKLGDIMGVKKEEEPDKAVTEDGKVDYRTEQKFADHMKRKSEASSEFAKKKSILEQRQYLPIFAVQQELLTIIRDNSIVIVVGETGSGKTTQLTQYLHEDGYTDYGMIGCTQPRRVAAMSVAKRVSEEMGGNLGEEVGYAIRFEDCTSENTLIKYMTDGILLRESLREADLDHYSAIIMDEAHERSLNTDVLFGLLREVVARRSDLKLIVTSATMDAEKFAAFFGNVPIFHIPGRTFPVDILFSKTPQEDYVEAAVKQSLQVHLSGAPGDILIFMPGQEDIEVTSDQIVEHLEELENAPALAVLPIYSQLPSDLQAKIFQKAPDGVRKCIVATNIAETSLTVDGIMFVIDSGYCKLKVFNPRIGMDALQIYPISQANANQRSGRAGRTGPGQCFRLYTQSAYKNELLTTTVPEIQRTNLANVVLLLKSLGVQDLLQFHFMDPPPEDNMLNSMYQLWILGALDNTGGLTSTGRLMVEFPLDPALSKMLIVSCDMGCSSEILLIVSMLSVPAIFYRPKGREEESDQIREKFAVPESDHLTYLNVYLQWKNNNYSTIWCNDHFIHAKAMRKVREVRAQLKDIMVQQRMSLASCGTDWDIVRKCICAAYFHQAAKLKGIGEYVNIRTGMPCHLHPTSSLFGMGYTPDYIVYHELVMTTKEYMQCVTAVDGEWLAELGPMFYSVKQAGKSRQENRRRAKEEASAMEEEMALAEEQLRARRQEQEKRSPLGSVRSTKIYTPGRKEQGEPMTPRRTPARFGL
UniProt O60610, whole entry, looked up: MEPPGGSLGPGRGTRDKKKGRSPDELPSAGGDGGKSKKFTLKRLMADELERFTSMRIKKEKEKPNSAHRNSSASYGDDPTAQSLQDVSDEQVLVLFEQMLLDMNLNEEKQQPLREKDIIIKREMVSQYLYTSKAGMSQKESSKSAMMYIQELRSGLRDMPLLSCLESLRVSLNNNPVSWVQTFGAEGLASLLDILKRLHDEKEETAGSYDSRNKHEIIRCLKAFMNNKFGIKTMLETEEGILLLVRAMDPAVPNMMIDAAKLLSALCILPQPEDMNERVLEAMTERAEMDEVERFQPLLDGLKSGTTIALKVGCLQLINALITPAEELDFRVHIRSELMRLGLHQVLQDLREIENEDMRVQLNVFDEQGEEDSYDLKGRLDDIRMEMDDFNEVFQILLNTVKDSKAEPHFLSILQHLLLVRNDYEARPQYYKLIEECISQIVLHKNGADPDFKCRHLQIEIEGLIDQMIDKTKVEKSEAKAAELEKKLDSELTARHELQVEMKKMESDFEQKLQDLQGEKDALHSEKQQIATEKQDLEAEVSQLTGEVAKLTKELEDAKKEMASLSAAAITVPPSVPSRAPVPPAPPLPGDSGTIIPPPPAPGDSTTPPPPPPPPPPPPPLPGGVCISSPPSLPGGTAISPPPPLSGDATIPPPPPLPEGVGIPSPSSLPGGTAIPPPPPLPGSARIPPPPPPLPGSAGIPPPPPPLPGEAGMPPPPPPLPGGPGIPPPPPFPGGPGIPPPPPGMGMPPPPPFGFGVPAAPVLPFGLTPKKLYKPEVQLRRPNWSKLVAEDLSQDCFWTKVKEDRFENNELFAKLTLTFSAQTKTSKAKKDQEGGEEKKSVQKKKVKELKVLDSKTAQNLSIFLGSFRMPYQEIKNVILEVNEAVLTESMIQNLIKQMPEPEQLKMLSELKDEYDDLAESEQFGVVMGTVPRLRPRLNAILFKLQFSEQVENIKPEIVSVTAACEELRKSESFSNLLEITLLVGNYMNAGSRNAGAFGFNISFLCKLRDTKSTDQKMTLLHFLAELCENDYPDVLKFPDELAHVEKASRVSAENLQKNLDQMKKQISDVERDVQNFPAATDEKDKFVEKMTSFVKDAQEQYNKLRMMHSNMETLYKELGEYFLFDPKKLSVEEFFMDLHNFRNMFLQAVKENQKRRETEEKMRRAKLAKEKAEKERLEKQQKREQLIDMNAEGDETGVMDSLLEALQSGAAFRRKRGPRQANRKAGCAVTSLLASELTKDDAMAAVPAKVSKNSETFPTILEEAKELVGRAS
UniProt Q7Z478: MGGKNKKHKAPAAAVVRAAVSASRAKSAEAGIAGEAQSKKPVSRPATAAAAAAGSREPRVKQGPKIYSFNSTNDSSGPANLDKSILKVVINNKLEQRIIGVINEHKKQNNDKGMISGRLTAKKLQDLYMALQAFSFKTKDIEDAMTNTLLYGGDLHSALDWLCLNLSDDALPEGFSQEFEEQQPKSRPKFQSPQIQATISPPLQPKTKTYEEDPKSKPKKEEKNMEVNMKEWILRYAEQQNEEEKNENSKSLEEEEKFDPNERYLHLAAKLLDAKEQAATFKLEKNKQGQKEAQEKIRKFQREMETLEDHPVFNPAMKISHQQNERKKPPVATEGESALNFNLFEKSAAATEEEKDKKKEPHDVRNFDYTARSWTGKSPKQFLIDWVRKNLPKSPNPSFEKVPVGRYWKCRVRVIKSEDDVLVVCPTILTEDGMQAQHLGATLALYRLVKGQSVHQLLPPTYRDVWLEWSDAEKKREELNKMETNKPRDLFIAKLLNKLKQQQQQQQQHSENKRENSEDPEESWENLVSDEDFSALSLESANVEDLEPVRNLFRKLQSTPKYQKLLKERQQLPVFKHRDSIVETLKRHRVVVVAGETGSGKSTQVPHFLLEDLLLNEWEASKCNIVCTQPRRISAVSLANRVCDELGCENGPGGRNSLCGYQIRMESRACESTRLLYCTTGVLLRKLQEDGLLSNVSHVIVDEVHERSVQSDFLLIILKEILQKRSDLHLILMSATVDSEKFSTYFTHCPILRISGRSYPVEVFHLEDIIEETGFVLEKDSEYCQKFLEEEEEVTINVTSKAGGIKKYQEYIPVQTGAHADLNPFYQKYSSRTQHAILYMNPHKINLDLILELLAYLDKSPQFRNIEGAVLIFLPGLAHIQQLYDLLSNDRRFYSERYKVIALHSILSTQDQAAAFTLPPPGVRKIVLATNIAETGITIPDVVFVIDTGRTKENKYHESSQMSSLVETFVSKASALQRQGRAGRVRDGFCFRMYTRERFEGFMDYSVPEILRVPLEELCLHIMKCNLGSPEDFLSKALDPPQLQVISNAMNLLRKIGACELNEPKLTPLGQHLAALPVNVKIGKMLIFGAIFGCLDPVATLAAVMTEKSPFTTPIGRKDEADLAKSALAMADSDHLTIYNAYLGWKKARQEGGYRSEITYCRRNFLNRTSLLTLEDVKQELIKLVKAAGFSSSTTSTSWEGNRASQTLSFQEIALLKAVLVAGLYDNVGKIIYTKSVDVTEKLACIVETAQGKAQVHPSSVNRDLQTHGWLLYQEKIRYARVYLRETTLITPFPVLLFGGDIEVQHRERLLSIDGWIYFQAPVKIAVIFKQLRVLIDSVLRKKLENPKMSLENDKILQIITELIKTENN
UniProt Q14562: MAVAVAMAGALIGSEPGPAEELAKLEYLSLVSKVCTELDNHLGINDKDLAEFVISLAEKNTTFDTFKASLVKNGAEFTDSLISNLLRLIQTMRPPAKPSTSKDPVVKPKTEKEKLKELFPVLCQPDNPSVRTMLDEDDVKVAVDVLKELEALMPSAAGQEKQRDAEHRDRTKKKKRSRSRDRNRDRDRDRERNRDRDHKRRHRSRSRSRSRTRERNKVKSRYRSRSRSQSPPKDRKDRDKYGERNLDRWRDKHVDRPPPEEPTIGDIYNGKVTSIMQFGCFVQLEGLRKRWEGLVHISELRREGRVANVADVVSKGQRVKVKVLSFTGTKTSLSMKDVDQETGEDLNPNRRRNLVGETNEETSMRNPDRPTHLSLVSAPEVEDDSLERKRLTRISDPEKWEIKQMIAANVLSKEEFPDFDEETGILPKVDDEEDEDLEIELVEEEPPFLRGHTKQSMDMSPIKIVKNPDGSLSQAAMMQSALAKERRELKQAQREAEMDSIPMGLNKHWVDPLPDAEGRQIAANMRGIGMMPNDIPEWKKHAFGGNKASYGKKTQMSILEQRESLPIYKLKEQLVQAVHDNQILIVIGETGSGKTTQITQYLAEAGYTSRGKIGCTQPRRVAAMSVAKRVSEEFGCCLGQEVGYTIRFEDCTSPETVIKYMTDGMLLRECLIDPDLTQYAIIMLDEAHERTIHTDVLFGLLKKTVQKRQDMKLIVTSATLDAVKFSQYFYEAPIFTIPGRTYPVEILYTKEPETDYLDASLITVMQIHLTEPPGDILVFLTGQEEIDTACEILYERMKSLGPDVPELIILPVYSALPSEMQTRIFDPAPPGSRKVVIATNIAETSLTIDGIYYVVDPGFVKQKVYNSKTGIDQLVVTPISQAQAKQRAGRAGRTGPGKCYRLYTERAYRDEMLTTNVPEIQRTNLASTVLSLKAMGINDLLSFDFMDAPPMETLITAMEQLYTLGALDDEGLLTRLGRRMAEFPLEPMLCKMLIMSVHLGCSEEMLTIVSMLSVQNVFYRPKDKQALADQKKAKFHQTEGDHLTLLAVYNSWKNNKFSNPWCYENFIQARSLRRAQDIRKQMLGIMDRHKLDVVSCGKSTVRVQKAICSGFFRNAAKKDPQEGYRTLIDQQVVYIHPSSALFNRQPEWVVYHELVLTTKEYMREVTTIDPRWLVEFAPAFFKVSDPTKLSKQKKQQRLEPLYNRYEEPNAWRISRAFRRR
UniProt Q9NSV4, whole entry, looked up: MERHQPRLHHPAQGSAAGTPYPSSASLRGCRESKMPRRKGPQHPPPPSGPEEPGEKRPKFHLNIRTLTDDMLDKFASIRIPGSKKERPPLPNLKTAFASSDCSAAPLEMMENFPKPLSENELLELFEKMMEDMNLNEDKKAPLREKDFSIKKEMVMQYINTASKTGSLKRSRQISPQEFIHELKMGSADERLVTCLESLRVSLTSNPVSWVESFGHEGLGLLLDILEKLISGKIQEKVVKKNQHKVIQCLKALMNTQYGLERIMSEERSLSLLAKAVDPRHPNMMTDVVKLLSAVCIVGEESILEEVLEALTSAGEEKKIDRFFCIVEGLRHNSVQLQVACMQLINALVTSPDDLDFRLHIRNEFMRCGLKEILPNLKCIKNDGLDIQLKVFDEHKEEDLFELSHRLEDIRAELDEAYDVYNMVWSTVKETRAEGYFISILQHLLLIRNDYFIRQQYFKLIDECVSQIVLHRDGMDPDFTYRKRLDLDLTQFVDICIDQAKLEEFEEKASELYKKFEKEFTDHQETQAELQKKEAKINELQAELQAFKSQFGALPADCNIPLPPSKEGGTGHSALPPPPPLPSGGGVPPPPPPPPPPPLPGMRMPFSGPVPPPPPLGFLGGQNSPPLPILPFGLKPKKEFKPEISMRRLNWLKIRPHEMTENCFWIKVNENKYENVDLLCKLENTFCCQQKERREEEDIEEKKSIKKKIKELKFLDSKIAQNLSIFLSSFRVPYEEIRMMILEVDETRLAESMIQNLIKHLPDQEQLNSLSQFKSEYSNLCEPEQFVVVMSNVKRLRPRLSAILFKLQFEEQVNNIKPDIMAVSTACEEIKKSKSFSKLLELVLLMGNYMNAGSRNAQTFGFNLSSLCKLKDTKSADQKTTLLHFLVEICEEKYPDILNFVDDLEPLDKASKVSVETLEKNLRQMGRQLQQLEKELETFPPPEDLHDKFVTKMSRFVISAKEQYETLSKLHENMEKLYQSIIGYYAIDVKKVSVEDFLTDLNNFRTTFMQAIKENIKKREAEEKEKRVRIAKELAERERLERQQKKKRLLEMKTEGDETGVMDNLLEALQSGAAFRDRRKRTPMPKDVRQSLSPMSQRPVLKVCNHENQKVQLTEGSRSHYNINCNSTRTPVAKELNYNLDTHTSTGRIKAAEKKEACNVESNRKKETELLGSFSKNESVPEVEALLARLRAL

Compound: Cc1cc(ccc1-c1ccccc1)C(=O)N1CCCN(CC1)C(=O)CCl [compound 10]
Test: probe-labelled cysteine peptide fold change vs DMSO (competition) (log2 fold change); higher = less target engagement (more negative = stronger competition)
Details: THP-1, incubation time: 4 h
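Also: competitive profiling in live THP-1 cells: cysteine peptides tagged with an iodoacetamide desthiobiotin (IA-DTB) probe, intensity after compound treatment relative to DMSO-treated cells.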

Target | probe-labelled cysteine peptide fold change (10 µM) | probe-labelled cysteine peptide fold change (50 µM)
DNAJC10_Q8IXB1_301_LSGMLDGLVNVGWMDCATQDNLCK (UniProt Q8IXB1) | -0.0309 | 0.0968
DHX38_Q92620_865_TGPGQCFR (UniProt Q92620) | 0.0336 | -0.0451
DMAP1_Q9NPF5_199_YYHICAK (UniProt Q9NPF5) | 0.0642 | 0.147
DIAPH1_O60610_437_LIEECISQIVLHK (UniProt O60610) | 0.25 | 0.0877
DHX29_Q7Z478_749_FSTYFTHCPILR (UniProt Q7Z478) | 0.0241 | 0.37
DMXL1_Q9Y485_458_ELGCDK (UniProt Q9Y485) | -0.299 | -0.689
DHX8_Q14562_670_ECLIDPDLTQYAIIMLDEAHER (UniProt Q14562) | 0.285 | -0.0706
DIAPH3_Q9NSV4_464_LIDECVSQIVLHR (UniProt Q9NSV4) | 0.16 | 0.212
DNAJC13_O75165_12_DLACFYTTK (UniProt O75165) | -0.0878 | 0.0962
DIAPH1_O60610_1227_AGCAVTSLLASELTK (UniProt O60610) | -0.247 | -0.511
DNAAF2_Q9NVR5_701_EYIEHCNTPTTDSDSSIAVK (UniProt Q9NVR5) | -0.224 | -0.197
DNM1_Q05193_607_QLELACETQEEVDSWK (UniProt Q05193) | -0.181 | -0.00837
DHX38_Q92620_1072+1074_CICAAYFHQAAK (UniProt Q92620) | 0.0584 | -0.0577
DIS3L2_Q8IYB7_146_ETEAAYESDIPEELCGHHLPQQSLK (UniProt Q8IYB7) | -0.329 | -0.228
